Laboratory results reported in the supplement of paper PMC10849652.
Some of the results follow.

Sequences of proteins named here, by UniProt entry; tags and fusion partners are left off. A change or cut given only in a name is not applied to a line headed by its entry.
UniProt Q6P996: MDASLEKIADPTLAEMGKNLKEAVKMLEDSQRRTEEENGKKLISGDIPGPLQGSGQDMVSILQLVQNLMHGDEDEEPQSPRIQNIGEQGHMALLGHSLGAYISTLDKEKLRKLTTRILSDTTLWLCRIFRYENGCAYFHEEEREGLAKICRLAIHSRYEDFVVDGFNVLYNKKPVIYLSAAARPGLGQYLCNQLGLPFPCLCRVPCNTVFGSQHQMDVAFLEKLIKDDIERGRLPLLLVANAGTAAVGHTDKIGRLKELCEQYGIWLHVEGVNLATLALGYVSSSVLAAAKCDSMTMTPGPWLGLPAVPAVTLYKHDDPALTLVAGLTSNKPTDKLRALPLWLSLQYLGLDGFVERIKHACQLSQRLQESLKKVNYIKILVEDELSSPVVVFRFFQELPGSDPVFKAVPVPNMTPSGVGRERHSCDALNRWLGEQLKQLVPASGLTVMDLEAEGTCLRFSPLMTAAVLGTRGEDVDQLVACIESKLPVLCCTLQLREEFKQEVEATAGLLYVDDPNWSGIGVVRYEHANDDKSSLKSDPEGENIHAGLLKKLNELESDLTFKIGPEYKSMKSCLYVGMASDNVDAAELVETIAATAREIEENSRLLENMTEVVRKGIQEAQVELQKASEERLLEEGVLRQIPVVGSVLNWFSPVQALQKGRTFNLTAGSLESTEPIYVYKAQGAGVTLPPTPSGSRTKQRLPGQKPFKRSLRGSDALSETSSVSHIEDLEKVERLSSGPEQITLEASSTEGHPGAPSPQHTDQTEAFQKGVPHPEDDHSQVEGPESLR
UniProt Q6ZW49, whole entry, looked up: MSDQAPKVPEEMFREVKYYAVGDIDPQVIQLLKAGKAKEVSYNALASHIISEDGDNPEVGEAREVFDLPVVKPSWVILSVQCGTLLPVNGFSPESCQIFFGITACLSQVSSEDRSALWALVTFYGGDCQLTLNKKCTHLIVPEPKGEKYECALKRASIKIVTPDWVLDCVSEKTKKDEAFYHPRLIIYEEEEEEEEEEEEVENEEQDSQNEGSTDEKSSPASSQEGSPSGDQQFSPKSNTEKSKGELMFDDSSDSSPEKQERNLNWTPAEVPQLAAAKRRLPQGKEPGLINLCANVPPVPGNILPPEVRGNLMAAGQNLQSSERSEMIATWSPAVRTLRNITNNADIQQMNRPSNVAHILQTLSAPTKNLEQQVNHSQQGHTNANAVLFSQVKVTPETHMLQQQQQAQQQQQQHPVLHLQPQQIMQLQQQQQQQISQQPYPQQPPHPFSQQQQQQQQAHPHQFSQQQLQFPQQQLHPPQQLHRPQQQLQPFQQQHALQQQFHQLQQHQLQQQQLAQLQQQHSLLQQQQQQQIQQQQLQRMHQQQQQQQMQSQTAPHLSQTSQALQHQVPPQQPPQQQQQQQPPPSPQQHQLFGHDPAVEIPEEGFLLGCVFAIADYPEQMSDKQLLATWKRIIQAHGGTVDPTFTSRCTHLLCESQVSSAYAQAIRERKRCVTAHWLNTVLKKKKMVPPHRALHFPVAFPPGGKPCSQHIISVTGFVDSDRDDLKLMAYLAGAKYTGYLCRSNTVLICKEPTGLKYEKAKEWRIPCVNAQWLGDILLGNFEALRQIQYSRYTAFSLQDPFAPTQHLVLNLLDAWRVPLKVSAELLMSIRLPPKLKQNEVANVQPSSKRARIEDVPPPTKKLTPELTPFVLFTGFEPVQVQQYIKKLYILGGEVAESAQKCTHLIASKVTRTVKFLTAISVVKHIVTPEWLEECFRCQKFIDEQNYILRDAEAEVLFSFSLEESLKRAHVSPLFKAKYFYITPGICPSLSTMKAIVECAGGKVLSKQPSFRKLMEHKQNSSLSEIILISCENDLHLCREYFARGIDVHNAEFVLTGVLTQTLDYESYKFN
UniProt Q96GD0: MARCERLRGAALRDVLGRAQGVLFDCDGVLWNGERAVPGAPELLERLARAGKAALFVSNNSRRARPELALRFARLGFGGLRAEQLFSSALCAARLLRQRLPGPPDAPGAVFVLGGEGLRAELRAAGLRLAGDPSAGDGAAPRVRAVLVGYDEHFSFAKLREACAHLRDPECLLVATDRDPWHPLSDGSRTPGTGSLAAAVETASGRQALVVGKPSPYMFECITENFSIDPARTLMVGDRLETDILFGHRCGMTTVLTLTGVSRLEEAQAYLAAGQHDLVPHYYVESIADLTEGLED
UniProt Q8N5Y8: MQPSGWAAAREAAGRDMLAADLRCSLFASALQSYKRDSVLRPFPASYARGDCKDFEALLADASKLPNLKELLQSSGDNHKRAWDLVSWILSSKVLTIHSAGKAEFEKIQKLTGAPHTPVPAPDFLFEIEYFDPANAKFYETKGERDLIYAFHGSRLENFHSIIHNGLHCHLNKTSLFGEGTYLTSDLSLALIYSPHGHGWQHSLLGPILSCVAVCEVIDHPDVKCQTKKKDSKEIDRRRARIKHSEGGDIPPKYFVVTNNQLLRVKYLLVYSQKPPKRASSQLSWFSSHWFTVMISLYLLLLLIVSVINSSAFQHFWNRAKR
UniProt O15067: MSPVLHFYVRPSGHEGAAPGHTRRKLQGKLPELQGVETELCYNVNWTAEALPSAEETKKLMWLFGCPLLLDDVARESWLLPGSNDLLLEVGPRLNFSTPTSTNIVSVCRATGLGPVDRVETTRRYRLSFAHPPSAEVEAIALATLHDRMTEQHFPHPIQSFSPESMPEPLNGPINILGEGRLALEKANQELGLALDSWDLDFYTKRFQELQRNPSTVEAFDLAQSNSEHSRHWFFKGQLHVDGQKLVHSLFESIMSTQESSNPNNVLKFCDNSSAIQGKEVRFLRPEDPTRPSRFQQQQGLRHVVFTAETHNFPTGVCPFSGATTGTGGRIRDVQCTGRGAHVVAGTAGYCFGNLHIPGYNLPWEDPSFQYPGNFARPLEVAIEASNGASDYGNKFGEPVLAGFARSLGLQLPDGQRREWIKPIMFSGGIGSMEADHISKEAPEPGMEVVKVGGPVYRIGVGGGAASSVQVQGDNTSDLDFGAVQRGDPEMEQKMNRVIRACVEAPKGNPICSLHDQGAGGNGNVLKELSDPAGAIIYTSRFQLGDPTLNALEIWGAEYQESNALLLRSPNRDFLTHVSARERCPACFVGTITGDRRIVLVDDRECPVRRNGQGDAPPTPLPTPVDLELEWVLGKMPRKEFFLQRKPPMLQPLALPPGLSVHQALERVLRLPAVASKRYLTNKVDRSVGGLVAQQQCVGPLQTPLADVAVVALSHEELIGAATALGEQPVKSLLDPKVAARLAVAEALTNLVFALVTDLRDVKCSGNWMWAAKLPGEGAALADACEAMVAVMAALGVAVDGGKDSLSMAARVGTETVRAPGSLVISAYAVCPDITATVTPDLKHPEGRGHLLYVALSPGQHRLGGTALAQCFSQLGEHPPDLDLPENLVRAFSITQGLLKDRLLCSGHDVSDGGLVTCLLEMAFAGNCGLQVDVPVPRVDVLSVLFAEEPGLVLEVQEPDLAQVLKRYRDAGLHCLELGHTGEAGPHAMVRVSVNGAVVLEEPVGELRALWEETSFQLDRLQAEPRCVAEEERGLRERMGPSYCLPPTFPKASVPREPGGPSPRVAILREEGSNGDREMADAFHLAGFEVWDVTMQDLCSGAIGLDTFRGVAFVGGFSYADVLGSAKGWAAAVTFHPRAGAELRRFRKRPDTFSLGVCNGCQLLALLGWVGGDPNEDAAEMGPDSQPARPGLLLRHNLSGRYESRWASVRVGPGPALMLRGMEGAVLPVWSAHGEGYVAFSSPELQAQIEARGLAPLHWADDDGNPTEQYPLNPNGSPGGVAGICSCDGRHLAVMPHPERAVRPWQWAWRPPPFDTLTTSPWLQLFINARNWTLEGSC
UniProt Q16342: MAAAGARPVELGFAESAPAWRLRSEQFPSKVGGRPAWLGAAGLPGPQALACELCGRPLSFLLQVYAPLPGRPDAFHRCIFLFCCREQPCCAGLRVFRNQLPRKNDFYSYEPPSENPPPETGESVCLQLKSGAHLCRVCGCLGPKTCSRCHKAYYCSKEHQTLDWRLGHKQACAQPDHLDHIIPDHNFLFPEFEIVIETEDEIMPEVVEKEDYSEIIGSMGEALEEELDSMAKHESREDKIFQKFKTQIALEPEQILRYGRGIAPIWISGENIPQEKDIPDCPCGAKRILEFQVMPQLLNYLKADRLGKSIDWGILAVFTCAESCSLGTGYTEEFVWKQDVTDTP
UniProt P18669: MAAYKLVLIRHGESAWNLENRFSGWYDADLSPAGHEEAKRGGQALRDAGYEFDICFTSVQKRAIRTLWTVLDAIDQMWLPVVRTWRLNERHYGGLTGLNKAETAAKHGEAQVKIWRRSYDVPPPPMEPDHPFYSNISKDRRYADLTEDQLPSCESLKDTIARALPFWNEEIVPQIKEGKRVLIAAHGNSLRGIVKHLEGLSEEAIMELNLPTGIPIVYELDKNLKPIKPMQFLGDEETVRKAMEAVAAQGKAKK
UniProt Q15366, whole entry, looked up: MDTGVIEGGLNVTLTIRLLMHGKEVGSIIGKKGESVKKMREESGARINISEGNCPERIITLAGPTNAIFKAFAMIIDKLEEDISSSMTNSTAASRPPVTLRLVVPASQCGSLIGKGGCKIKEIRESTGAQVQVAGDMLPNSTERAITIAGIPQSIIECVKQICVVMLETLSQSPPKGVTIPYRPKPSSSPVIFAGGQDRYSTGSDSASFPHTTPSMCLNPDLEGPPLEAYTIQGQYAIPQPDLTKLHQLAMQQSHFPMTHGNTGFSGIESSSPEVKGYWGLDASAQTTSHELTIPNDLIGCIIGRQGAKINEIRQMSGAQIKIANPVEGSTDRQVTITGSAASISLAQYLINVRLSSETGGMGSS
UniProt Q9H4Z3: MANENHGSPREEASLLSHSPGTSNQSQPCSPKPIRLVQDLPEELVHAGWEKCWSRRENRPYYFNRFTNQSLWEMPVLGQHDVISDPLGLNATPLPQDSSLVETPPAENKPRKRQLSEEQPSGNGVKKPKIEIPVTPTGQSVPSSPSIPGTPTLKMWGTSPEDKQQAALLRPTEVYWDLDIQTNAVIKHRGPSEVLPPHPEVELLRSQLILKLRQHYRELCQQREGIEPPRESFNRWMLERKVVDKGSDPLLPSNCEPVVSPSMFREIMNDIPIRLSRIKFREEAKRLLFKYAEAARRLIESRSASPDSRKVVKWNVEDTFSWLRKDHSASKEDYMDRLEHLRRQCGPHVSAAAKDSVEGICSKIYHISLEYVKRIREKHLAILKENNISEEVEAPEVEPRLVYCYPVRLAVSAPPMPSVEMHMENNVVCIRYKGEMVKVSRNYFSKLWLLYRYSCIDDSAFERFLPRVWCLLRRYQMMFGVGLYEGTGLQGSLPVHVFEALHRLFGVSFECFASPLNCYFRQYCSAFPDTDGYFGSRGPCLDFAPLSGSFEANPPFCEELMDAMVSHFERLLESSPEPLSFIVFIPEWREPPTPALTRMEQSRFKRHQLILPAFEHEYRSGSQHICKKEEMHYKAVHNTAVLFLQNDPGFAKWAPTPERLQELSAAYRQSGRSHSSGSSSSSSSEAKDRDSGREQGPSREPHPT
UniProt O15212, whole entry, looked up: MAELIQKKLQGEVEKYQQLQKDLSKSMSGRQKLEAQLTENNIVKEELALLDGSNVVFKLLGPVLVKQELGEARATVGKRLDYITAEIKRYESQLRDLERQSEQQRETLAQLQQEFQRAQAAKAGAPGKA
UniProt P49585: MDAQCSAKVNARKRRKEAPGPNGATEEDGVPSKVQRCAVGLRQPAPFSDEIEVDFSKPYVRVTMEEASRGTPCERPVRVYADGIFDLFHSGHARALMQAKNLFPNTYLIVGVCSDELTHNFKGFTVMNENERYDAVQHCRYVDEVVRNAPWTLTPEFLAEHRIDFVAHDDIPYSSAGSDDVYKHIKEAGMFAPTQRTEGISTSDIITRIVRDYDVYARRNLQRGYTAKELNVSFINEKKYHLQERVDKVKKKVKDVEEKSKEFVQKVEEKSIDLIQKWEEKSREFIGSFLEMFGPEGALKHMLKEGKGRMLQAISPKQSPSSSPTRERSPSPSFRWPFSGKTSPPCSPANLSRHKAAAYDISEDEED
UniProt P57721, whole entry, looked up: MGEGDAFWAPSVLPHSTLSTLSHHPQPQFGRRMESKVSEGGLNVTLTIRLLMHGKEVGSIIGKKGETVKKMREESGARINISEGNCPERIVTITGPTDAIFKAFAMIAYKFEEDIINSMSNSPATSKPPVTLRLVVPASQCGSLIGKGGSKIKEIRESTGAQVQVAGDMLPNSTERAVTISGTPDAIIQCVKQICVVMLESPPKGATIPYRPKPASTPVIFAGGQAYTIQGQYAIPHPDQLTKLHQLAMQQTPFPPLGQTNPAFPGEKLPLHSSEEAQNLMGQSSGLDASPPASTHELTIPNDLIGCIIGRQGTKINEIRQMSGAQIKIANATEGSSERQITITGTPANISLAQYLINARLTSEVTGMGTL
UniProt P30086: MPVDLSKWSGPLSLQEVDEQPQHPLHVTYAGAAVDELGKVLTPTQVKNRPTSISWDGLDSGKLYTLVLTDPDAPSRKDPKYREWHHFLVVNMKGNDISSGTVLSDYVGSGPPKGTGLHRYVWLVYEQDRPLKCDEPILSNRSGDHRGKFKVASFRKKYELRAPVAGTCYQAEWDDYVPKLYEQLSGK

compound: CN1CCC(CNc2ccc3ncc(-c4cccc(OC(F)(F)F)c4)n3n2)CC1; test: log2 fold change, soluble protein after heating vs DMSO (PISA); higher = thermal stabilisation; K562 lysate, 10 uM; active = over 0.2 and 3.5 SD of the protein, either way, in both replicates (recomputed)
Summary of the method: (§1)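 K562 pellets were dounce-homogenised in PBS pH 7.4 with 1 mM MgCl2, and the crude extract at 1 mg/mL protein was treated with 10 μM compound for 30 min. Aliquots were heated for 3 min across 48°C-58°C, pooled, and brought to 0.5% NP-40 at 4°C; soluble protein was the supernatant after 21,000xg for 90 min. Soluble protein was quantified by TMTpro 16plex LC-MS/MS with channel sums equalised, and reported as log2 fold change in thermal stability against DMSO controls, with values from duplicates.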

| Target | log2 fold change |
| --- | --- |
| PDXDC1 (UniProt Q6P996) | inactive: -0.067 |
| PDCL3 (UniProt Q9H2J4) | inactive: 0.02 |
| PDF (UniProt Q9HBH1) | inactive: -0.181 |
| PAXIP1 (UniProt Q6ZW49) | inactive: -0.008 |
| PARP14 (UniProt Q460N5) | inactive: 0.075 |
| PDXP (UniProt Q96GD0) | inactive: 0.069 |
| PDE12 (UniProt Q6L8Q7) | inactive: -0.017 |
| PARP16 isoform 3 (UniProt Q8N5Y8) | inactive: 0.027 |
| PFAS (UniProt O15067) | inactive: 0.001 |
| PDPR (UniProt Q8NCN5) | inactive: 0.002 |

compound: CN1CCN(CCOc2cc(OC3CCOCC3)c3c(Nc4c(Cl)ccc5c4OCO5)ncnc3c2)CC1 [saracatinib]; test: as above
Summary of the method: as §1

| Target | log2 fold change |
| --- | --- |
| PDCD2 (UniProt Q16342) | inactive: 0.036 |
| PGAM1 (UniProt P18669) | inactive: -0.012 |
| PDCD6IP isoform 2 (UniProt Q8WUM4) | inactive: 0.011 |
| PC (UniProt P11498) | inactive: -0.009 |
| PCBP2 isoform 3 (UniProt Q15366) | inactive: -0.017 |
| PCIF1 (UniProt Q9H4Z3) | inactive: -0.001 |
| PFDN6 (UniProt O15212) | inactive: 0.011 |
| PCYT1A (UniProt P49585) | inactive: 0.007 |
| PCBP3 (UniProt P57721) | inactive: 0.014 |
| PDS5B (UniProt Q9NTI5) | inactive: 0.019 |
| PEBP1 (UniProt P30086) | inactive: -0.031 |
| PAXX (UniProt Q9BUH6) | inactive: -0.009 |
| PFDN5 (UniProt Q99471) | inactive: 0.002 |

2 entries from above, bar-delimited:
Target | log2 fold change
PCBP2 isoform 3 (UniProt Q15366) | inactive: -0.017
PEBP1 (UniProt P30086) | inactive: -0.031
